Measurements reported in PubChem BioAssay AID743454 (Peter MacCallum Cancer Centre, 2014)

- Purpose: 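Knock-downs lowering viability or raising caspase 3/7 activity in vorinostat-treated resistant cells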 (primary screen)
- Cell system: human HCT116-VR colon cancer cells, selected for vorinostat resistance
- Reagents: siRNA pool against human genes, 40 nM siRNA pool
- Time to read-out: vorinostat for 24 h, read-out about 72 h after transfection
- Conditions: vorinostat at 2.5 µM final
- Measurement: 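Cell viability by CellTiter-Fluor and caspase 3/7 activity by luminescence, each scaled to mock wells per plate, duplicates averaged, then robust z-scored over all plates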
- Scale: viability robust z-score: higher = more viable cells than screen typical; caspase robust z-score: higher = more caspase 3/7 activity than screen typical
- Active means: 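a knock-down is a hit when classed RV1 or RV2 for lowered viability, or CA1 or CA2 for caspase activation; those lethal without drug were dropped; hits were retested singly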
The deposit covers about 18,000 reagents; this is a part drawn at random. Over the whole deposit, 450 (2.5%) got an active call. 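Single biological run; no consistent viability z cut-off exists, so the class columns, not z-scores, define the calls.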 Entries without a mark were called inactive.

{"gene": "PKIB", "viability hit class": "no change", "caspase hit class": "no change", "viability robust z-score": 0.14, "caspase robust z-score": -0.16}
{"gene": "LLPH", "viability hit class": "no change", "caspase hit class": "no change", "viability robust z-score": -1.29, "caspase robust z-score": -1.55}
{"gene": "S100A7A", "viability hit class": "no change", "caspase hit class": "no change", "viability robust z-score": -1.33, "caspase robust z-score": 0.55}
{"gene": "CXCL9", "viability hit class": "no change", "caspase hit class": "no change", "viability robust z-score": 0.46, "caspase robust z-score": 1.01}
{"gene": "EIF2B4", "viability hit class": "no change", "caspase hit class": "no change", "viability robust z-score": -2.1, "caspase robust z-score": -0.67}
{"gene": "ATF6", "viability hit class": "no change", "caspase hit class": "no change", "viability robust z-score": -0.62, "caspase robust z-score": 1.84}
{"gene": "RRM1", "viability hit class": "no change (active)", "caspase hit class": "CA2 (caspase activation)", "viability robust z-score": -3.45, "caspase robust z-score": 7.44}
{"gene": "AMMECR1L", "viability hit class": "no change", "caspase hit class": "no change", "viability robust z-score": 0.28, "caspase robust z-score": 1.01}
{"gene": "JPH3", "viability hit class": "no change", "caspase hit class": "no change", "viability robust z-score": 1.67, "caspase robust z-score": -0.21}
{"gene": "MINPP1", "viability hit class": "no change", "caspase hit class": "no change", "viability robust z-score": -0.8, "caspase robust z-score": -0.18}
{"gene": "EIF4A2", "viability hit class": "no change", "caspase hit class": "no change", "viability robust z-score": 0.46, "caspase robust z-score": -0.64}
{"gene": "CORO6", "viability hit class": "no change", "caspase hit class": "no change", "viability robust z-score": -0.01, "caspase robust z-score": 0.42}
{"gene": "LRPPRC", "viability hit class": "no change", "caspase hit class": "no change", "viability robust z-score": 0.48, "caspase robust z-score": 2.54}
{"gene": "GPR155", "viability hit class": "no change", "caspase hit class": "no change", "viability robust z-score": 0.74, "caspase robust z-score": -0.57}
{"gene": "LINC01588", "viability hit class": "no change", "caspase hit class": "no change", "viability robust z-score": -0.54, "caspase robust z-score": -0.33}
{"gene": "CYP7A1", "viability hit class": "no change (active)", "caspase hit class": "CA2 (caspase activation)", "viability robust z-score": -1.1, "caspase robust z-score": 5.43}
{"gene": "LINC02910", "viability hit class": "no change", "caspase hit class": "no change", "viability robust z-score": 0.5, "caspase robust z-score": -0.11}
{"gene": "ADH7", "viability hit class": "no change", "caspase hit class": "no change", "viability robust z-score": -0.18, "caspase robust z-score": -0.06}
{"gene": "POLR1A", "viability hit class": "no change", "caspase hit class": "no change", "viability robust z-score": -1.21, "caspase robust z-score": 0.72}
{"gene": "SELENOM", "viability hit class": "no change", "caspase hit class": "no change", "viability robust z-score": 1.15, "caspase robust z-score": 2.02}
{"gene": "B9D2", "viability hit class": "no change", "caspase hit class": "no change", "viability robust z-score": 1.38, "caspase robust z-score": 0.36}

Copied from the list:
AMMECR1L, viability hit class: no change
LRPPRC, caspase robust z-score → 2.54
